Patent publication EP3600393A1
Results are given in words; binding and its absence hold for the method and conditions named. Some results given as binding are weak or reduced against the parent protein; the word gives no strength.

Sequences of proteins named here, by UniProt entry; tags and fusion partners are left off. A change or cut given only in a name is not applied to a line headed by its entry. Residues count along the entry.
UniProt Q08722: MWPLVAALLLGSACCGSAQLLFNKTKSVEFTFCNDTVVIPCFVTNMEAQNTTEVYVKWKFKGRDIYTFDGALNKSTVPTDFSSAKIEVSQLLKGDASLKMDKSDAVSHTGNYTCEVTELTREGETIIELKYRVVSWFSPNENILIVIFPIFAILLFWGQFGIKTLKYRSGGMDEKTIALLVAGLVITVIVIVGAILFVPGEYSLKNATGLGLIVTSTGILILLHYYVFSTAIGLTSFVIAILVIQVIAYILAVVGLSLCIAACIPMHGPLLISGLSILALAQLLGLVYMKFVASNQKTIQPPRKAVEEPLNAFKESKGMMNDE
human CD47: residues 19-323 of Q08722
recombinant human His-CD47 (AcroBiosystems): residues 19-139 of Q08722

B1: murine VLX9 antibody (antibody, V domains shown)
VH: QVQLQQFGAELAKPGASVQMSCKASGYTFTNYWIHWVKQRPGQGLEWIGYTDPRTDYTEYNQKFKDKATLAADRSSSTAYMRLSSLTSEDSAVYYCAGGGRVGLGYWGHGSSVTVSS
VL: DVFMTQTPLSLPVSLGDQASISCRSSQNIVQSNGNTYLEWYLQKPGQSPKLLIYKVFHRFSGVPDRFSGSGSGTDFTLKISRVEAEDLGVYYCFQGSHVPWTFGGGTKVEIK
B2: VLX8 IgG4PE xi (antibody, V domains shown)
VH: EVQLQQSGPELMKPGASVKISCKASGYSFTNYYIHWVNQSHGKSLEWIGYIDPLNGDTTYNQKFKGKATLTVDKSSSTAYMRLSSLTSADSAVYYCARGGKRAMDYWGQGTSVTVSS
VL: DIQMTQTTSSLSASLGDRVTISCRASQDISNYLNWYQQKPDGTVKLLIYYTSRLYSGVPSRFSGSGSGTDYSLTISNLEQEDIATYFCQQGNTLPWTFGGGTKLEIKR

Columns and labels:
[1] = target: recombinant human His-CD47 (AcroBiosystems) (human) (UniProt Q08722); experiment: solid-phase ELISA on adsorbed His-CD47 at pH 6 or pH 8 (Table 6, body missing)
human CD47 (human) = human CD47 (human) (UniProt Q08722); experiment: cell-based ELISA on OV10 hCD47 cells and flow cytometry on hRBCs

Row | Binder | binding [1] | binding (human CD47 (human))
1 | B1 | binds | –
2 | B2 | – | binds
